Source: the supplement of paper PMC10849652
The other results are listed elsewhere or left out. Residues, ends and D or L forms follow the SMILES beside them. *: point of attachment. Cbz = O=C(OCc1ccccc1)*

Sequences of proteins named here, by UniProt entry; tags and fusion partners are left off. A change or cut given only in a name is not applied to a line headed by its entry.
UniProt P68104, whole entry, looked up: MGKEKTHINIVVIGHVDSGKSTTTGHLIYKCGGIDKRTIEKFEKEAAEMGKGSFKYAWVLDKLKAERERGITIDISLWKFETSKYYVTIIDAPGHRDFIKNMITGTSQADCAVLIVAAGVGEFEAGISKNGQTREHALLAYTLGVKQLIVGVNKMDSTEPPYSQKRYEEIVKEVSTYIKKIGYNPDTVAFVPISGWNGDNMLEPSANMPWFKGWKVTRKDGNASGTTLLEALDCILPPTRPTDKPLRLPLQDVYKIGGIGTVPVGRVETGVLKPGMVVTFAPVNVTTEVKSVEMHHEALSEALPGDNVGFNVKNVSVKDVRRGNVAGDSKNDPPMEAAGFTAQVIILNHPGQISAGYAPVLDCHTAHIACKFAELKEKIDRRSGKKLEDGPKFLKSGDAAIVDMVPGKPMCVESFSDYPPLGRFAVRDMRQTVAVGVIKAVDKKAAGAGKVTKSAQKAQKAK
UniProt Q15369, whole entry, looked up: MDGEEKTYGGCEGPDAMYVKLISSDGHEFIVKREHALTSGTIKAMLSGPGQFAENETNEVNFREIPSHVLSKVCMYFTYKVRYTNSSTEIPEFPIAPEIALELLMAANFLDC
UniProt Q9H9B1: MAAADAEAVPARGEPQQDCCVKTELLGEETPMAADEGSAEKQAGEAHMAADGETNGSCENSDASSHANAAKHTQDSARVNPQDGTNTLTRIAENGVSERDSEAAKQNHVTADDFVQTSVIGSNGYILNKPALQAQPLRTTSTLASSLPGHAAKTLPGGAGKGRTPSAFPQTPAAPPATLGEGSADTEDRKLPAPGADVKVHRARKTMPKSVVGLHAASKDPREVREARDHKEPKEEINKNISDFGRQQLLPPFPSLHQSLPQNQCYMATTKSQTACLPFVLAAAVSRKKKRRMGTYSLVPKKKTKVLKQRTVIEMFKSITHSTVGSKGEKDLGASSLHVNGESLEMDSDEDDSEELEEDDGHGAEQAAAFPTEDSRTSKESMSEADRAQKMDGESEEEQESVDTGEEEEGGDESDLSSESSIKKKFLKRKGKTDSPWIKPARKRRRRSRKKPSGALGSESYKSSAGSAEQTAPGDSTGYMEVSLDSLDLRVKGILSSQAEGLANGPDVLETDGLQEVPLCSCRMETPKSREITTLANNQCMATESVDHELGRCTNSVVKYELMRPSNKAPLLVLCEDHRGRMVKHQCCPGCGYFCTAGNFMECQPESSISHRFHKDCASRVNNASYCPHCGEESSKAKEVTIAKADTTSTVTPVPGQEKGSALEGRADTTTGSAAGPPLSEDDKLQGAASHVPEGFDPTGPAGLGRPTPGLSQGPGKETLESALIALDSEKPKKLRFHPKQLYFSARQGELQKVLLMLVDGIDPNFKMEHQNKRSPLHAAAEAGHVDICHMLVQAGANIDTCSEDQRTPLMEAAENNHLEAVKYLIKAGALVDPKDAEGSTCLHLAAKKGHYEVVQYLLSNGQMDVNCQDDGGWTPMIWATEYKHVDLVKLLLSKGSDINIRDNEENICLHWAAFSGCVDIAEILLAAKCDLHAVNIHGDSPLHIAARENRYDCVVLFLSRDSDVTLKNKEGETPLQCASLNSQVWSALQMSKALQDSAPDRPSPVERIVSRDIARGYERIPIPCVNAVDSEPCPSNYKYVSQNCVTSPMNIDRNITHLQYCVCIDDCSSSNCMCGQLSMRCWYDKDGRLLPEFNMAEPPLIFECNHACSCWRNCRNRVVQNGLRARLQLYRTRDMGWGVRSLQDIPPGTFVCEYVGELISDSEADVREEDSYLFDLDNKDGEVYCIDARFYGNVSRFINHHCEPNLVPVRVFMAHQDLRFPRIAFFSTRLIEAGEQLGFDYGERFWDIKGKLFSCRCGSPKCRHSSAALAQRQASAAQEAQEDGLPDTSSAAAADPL
UniProt Q9NRA8: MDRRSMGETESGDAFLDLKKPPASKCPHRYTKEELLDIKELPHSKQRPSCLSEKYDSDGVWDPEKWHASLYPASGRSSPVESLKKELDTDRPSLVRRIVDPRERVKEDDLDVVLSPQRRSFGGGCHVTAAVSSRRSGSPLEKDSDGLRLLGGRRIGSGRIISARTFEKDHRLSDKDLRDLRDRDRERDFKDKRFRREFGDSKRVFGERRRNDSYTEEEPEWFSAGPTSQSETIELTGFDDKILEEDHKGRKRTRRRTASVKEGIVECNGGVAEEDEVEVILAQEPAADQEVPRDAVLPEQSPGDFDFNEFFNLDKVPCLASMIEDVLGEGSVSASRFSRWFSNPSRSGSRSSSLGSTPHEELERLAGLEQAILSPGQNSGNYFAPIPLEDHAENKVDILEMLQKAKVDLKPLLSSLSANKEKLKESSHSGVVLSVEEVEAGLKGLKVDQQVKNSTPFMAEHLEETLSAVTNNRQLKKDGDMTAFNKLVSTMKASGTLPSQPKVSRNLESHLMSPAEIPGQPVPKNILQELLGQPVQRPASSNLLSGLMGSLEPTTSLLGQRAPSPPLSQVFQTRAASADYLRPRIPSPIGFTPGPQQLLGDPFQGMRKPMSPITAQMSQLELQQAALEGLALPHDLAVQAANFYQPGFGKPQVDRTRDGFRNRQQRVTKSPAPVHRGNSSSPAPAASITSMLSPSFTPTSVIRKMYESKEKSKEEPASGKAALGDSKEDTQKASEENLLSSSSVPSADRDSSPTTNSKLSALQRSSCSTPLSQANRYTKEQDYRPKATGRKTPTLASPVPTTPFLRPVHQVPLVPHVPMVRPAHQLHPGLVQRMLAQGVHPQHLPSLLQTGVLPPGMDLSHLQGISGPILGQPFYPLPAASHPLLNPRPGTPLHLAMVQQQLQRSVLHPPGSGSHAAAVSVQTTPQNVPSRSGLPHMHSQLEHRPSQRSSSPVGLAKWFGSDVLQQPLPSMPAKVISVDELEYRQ
UniProt Q8N6R0: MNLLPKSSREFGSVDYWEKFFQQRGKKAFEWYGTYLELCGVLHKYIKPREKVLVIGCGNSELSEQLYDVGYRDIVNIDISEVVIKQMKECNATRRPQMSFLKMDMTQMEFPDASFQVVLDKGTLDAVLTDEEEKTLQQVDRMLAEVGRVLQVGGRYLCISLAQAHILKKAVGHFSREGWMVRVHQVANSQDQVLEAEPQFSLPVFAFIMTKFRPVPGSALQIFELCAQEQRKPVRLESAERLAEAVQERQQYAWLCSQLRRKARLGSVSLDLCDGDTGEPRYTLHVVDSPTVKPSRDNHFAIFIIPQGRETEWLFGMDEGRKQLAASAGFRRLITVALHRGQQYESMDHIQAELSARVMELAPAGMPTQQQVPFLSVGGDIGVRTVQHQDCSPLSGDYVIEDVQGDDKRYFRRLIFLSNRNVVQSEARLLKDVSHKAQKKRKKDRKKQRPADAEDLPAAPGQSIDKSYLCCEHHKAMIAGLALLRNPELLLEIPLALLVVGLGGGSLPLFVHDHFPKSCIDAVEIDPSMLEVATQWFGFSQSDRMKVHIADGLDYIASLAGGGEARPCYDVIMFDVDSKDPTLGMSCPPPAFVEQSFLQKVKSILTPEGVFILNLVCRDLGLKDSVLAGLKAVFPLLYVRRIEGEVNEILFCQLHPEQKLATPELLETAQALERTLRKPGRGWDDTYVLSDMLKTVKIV
UniProt P55199: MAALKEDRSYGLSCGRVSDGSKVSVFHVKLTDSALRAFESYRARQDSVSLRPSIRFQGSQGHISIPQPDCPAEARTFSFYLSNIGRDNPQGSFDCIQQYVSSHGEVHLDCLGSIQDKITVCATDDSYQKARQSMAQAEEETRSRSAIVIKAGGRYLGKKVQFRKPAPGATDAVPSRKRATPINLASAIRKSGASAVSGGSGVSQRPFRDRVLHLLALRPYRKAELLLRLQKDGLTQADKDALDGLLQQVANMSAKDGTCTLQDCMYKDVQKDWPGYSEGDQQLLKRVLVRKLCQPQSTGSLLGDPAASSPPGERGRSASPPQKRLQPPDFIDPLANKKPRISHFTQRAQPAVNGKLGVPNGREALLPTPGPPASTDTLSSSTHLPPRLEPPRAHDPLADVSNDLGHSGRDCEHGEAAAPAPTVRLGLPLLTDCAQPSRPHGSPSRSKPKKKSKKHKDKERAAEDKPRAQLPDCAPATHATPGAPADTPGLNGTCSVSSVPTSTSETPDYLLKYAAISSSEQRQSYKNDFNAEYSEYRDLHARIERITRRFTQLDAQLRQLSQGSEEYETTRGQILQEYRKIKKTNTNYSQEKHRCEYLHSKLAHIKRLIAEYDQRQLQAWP
UniProt Q5VUJ9: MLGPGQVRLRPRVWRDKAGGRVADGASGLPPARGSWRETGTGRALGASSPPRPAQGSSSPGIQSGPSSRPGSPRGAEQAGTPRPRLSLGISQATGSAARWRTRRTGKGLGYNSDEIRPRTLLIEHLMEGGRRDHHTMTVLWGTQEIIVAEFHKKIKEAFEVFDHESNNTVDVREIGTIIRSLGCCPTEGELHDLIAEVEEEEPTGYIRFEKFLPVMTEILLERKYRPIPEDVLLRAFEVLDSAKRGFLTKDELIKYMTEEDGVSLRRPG
UniProt O75354: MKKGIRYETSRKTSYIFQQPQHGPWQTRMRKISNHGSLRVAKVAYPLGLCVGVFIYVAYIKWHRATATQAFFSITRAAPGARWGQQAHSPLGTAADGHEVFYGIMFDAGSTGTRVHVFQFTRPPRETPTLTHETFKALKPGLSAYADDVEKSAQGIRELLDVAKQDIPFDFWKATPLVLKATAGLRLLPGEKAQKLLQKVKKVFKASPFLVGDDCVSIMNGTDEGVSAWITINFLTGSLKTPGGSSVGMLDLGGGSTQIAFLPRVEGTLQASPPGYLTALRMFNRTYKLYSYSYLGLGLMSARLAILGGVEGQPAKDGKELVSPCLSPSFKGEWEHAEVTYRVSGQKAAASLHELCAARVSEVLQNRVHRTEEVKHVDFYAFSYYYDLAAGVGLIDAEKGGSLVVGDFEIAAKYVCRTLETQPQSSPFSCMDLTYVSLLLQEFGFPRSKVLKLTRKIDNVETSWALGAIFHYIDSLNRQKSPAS
UniProt Q9UI10, whole entry, looked up: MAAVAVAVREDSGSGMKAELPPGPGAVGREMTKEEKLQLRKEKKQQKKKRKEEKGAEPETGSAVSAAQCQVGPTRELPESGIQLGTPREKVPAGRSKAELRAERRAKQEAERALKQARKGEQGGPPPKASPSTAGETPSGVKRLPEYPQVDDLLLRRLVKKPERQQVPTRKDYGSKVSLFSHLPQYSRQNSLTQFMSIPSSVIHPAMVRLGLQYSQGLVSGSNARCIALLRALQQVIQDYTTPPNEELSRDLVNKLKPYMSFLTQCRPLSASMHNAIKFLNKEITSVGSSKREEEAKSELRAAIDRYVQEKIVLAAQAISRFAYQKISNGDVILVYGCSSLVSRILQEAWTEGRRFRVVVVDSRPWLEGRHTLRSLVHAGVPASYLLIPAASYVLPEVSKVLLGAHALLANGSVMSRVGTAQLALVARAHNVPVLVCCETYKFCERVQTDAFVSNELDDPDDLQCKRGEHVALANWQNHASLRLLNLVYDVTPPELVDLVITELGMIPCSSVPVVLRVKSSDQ
UniProt A1L3X0: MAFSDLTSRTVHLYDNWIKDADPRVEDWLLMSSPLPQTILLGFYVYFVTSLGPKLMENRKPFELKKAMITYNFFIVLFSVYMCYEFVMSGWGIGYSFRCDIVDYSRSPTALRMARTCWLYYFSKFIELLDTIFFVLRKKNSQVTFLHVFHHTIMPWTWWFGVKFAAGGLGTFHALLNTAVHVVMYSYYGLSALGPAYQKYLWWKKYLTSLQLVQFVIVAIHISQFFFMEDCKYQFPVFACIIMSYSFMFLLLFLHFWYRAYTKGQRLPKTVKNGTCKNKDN
UniProt Q9BQI3, whole entry, looked up: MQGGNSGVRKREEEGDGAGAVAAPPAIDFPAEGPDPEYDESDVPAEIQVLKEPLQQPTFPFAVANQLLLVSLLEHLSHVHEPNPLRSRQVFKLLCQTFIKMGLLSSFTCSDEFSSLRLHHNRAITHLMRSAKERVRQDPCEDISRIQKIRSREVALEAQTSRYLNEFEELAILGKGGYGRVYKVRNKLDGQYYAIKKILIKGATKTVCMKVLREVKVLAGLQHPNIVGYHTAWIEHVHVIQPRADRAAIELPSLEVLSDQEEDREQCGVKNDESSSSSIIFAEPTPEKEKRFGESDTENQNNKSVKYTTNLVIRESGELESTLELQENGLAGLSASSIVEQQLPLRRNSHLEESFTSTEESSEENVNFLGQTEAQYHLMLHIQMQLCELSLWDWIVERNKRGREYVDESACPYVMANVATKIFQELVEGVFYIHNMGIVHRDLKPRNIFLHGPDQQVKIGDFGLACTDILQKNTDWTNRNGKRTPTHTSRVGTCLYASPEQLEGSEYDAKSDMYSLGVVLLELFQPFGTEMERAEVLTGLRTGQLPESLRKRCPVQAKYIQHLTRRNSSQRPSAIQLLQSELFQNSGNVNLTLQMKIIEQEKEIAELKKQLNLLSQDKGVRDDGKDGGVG

What was measured:
Experiment in all cases: log2 fold change, soluble protein after heating vs DMSO (PISA); higher = thermal stabilisation; K562 cells, 10 uM, 30 min; active = over 0.2 and 3.5 SD of the protein, either way, in both replicates (recomputed)
erlotinib = compound: C#Cc1cccc(Nc2ncnc3cc(OCCOC)c(OCCOC)cc23)c1 [erlotinib]
How it was run: (§1)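 K562 cells at 2×10^6 cells/mL were treated for 30 min with 10 μM compound, and aliquots were heated for 3 min over 48°C-58°C before pooling. Extraction used PBS with 0.5% NP-40 at 4°C, and soluble protein was the supernatant after 21,000xg for 90 min, measured by TMTpro 16plex LC-MS/MS with channel sums equalised. Thermal stability values, relative to control samples and from duplicates, are log2 fold changes.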

[1] = compound: C/C(=N\NC(=O)C1=CC(=CC=C1)S(=O)(=O)N2CCOCC2)/C3=C(C=CC(=C3)Cl)O
How it was run: as §1

[2] = compound: C1=CC(=C(C=C1Cl)C2=NC3=NC=CN=C3C(=N2)NC4=CC=NC=C4)F
How it was run: as §1

[3] = compound: C1=CC(=CC=C1C2=NC3=C(N2)C=C(C=C3)C(=O)N)OC4=CC=C(C=C4)Cl
How it was run: as §1

[4] = compound: C1=CC2=C(C=CC(=C2)/C=C\3/C(=O)NC(=NCC4=CC=CS4)S3)N=C1
How it was run: as §1

[5] = compound: C1=CC2=NC=CN=C2C=C1/C=C/3\C(=O)NC(=O)S3
How it was run: as §1

[6] = compound: C1=CC=C(C=C1)C2=NC(=C(N2)C3=CC=NC=C3)C4=CC(=C(C=C4)Cl)O
How it was run: as §1

[7] = compound: C1=CC=C2C(=C1)C3=NNC4=CC=CC(=C43)C2=O
How it was run: as §1

[8] = compound: C1CCN(C1)C(=O)NC2=CC=CC(=C2)NC3=NC=C(C(=N3)NCCC4=CN=CN4)Br
How it was run: as §1

[9] = compound: C1CN(CCC1(CC2=CC=C(C=C2)Cl)N)C3=NC=NC4=C3C=CN4
How it was run: as §1

IRAK-1-4 Inhibitor I = compound: C1COCCN1CCN2C3=CC=CC=C3N=C2NC(=O)C4=CC(=CC=C4)[N+](=O)[O-] [IRAK-1-4 Inhibitor I]
How it was run: as §1

ibrutinib = compound: C=CC(=O)N1CCC[C@@H](n2nc(-c3ccc(Oc4ccccc4)cc3)c3c(N)ncnc32)C1 [ibrutinib]
How it was run: as §1

[10] = compound: CC(=O)c1cnc2ccc(-c3cc(Cl)c(O)c(Cl)c3)nc2c1N[C@H]1CC[C@H](CN(C)C)CC1
How it was run: as §1

ralimetinib = compound: CC(C)(C)Cn1c(N)nc2ccc(-c3[nH]c(C(C)(C)C)nc3-c3ccc(F)cc3)nc21 [ralimetinib]
How it was run: as §1

[11] = compound: CC(C)(O)CC(=O)NCCn1ccc2ncnc(Nc3ccc(Oc4cccc(C(F)(F)F)c4)c(Cl)c3)c21
How it was run: as §1

[12] = compound: CC(C)C1=C2N=C(C=C(N2N=C1)NCC3=CC=CC=C3)NCCCCCCN
How it was run: as §1

[13] = compound: CC(C)C[C@@H](C=O)NC(=O)[C@H](CC(C)C)NC(=O)[C@H](CC(C)C)NC(=O)OCc1ccccc1
How it was run: as §1

pinometostat = compound: CC(C)N(C[C@H]1O[C@@H](n2cnc3c(N)ncnc32)[C@H](O)[C@@H]1O)[C@H]1C[C@@H](CCc2nc3cc(C(C)(C)C)ccc3[nH]2)C1 [pinometostat]
How it was run: as §1

[14] = compound: CC1=C(C2=C(C=C1)C(=O)C3=CC=CC=C3N2CCCN)C
How it was run: as §1

[15] = compound: CC1=C(C(CC(=O)N1)C2=CC=C(C=C2)C(F)(F)F)C(=O)NC3=C(C=C4C(=C3)C=NN4)F
How it was run: as §1

Measured: log2 fold change

EEF1A1 (UniProt P68104)
inactive: erlotinib -0.083 | [1] 0.119 | [2] 0.051 | [3] 0.062 | [4] -0.062 | [5] -0.343 | [6] 0.195 | [7] 0.135 | [8] -0.055 | [9] 0.122 | IRAK-1-4 Inhibitor I 0.133 | ibrutinib 0.121 | [10] 0.05 | ralimetinib 0.133 | [11] -0.052 | [12] -0.037 | [13] -0.019 | pinometostat -0.028 | [14] -0.178

ELOC (UniProt Q15369)
inactive: erlotinib -0.055 | [1] 0.124 | [2] 0.066 | [3] 0.017 | [4] 0.117 | [5] 0.048 | [6] 0.075 | [7] 0.009 | [8] -0.016 | [9] -0.024 | IRAK-1-4 Inhibitor I 0.017 | ibrutinib -0.011 | [10] -0.018 | ralimetinib -0.027 | [11] -0.07 | [12] -0.032 | [13] -0.042 | pinometostat 0.008 | [14] 0.165

EHMT1 (UniProt Q9H9B1)
inactive: erlotinib 0.139 | [1] 0.159 | [2] 0.101 | [3] 0 | [4] 0.005 | [5] -0.203 | [6] -0.089 | [7] -0.042 | [8] 0.037 | [9] -0.07 | IRAK-1-4 Inhibitor I -0.144 | ibrutinib -0.357 | [10] -0.053 | ralimetinib -0.03 | [11] -0.028 | [12] -0.059 | [13] 0.049 | pinometostat 0.109 | [14] -0.063

EIF4ENIF1 isoform 3 (UniProt Q9NRA8)
inactive: erlotinib 0.051 | [1] 0.061 | [2] 0.092 | [3] 0.01 | [4] -0.015 | [5] 0 | [6] 0.082 | [7] -0.017 | [8] -0.035 | [9] 0.009 | IRAK-1-4 Inhibitor I 0.003 | ibrutinib 0.035 | [10] -0.146 | ralimetinib 0.014 | [11] -0.086 | [12] -0.075 | [13] -0.048 | pinometostat 0.041 | [14] -0.091

EEF1AKNMT (UniProt Q8N6R0)
inactive: erlotinib 0.063 | [1] 0.15 | [2] 0.008 | [3] -0.022 | [4] 0.114 | [5] 0.013 | [6] 0.091 | [7] 0.058 | [8] 0.023 | [9] -0.061 | IRAK-1-4 Inhibitor I -0.081 | ibrutinib -0.116 | [10] -0.026 | ralimetinib 0.141 | [11] -0.097 | [12] -0.199 | [13] 0.127 | [14] 0.13
active: pinometostat 0.354

Reprinted from the listing (two entries):
ELOC (UniProt Q15369)
inactive: erlotinib -0.055 | [1] 0.124 | [2] 0.066 | [3] 0.017 | [4] 0.117 | [5] 0.048 | [6] 0.075 | [7] 0.009 | [8] -0.016 | [9] -0.024 | IRAK-1-4 Inhibitor I 0.017 | ibrutinib -0.011 | [10] -0.018 | ralimetinib -0.027 | [11] -0.07 | [12] -0.032 | [13] -0.042 | pinometostat 0.008 | [14] 0.165

EHMT1 (UniProt Q9H9B1)
inactive: erlotinib 0.139 | [1] 0.159 | [2] 0.101 | [3] 0 | [4] 0.005 | [5] -0.203 | [6] -0.089 | [7] -0.042 | [8] 0.037 | [9] -0.07 | IRAK-1-4 Inhibitor I -0.144 | ibrutinib -0.357 | [10] -0.053 | ralimetinib -0.03 | [11] -0.028 | [12] -0.059 | [13] 0.049 | pinometostat 0.109 | [14] -0.063

The list goes on.

ENPP3 (UniProt O14638)
inactive: erlotinib -0.115 | [1] -0.083 | [2] 0.003 | [3] 0.003 | [4] 0.031 | [5] -0.008 | [6] 0.007 | [7] -0.047 | IRAK-1-4 Inhibitor I 0.051 | ibrutinib 0.072 | [10] -0.128 | ralimetinib 0.013 | [11] 0.092 | [12] -0.074 | [13] 0.123 | pinometostat 0.279 | [15] 0.019

ELL (UniProt P55199)
inactive: erlotinib 0.033 | [1] 0.116 | [2] 0.064 | [3] -0.06 | [4] 0.093 | [5] 0.124 | [6] -0.089 | [7] -0.177 | [8] -0.223 | [9] -0.075 | ibrutinib 0 | [10] -0.176 | ralimetinib 0.183 | [11] -0.117 | [12] -0.014 | [13] 0.106 | [15] -0.063 | [14] 0.263

EFCAB2 (UniProt Q5VUJ9)
inactive: erlotinib 0.356 | [1] -0.166 | [3] -0.159 | [4] 0.311 | [6] 0.059 | [7] -0.007 | [10] -0.219 | ralimetinib -0.362 | [12] -0.115 | [13] 0.119

ENTPD6 (UniProt O75354)
inactive: erlotinib 0.014 | [1] -0.035 | [2] 0.086 | [3] 0.048 | [4] -0.058 | [5] 0.017 | [6] -0.019 | [7] 0.068 | [8] 0.068 | [9] 0.017 | ibrutinib -0.047 | [10] -0.099 | ralimetinib -0.01 | [11] -0.184 | [12] -0.065 | [13] 0.034 | [15] -0.02 | [14] 0.044

EIF2B4 (UniProt Q9UI10)
inactive: erlotinib -0.063 | [1] -0.106 | [2] -0.041 | [3] 0.046 | [4] -0.041 | [5] 0.169 | [7] -0.069 | [8] 0.026 | [9] -0.188 | IRAK-1-4 Inhibitor I -0.029 | ibrutinib -0.614 | [10] 0.084 | [11] -0.217 | [12] -0.099 | pinometostat 0.09 | [14] 0.136

ELOVL7 (UniProt A1L3X0)
active: [12] -0.617
inactive: erlotinib -0.008 | [1] 0.062 | [2] -0.065 | [3] 0.009 | [4] 0.182 | [7] -0.162 | [8] 0.078 | [9] 0.065 | [10] 0.059 | [11] -0.177 | [14] 0.062

EIF2AK1 (UniProt Q9BQI3)
active: [13] 0.279
inactive: erlotinib -0.002 | [1] 0.006 | [2] -0.042 | [3] 0 | [4] -0.029 | [5] -0.114 | [6] -0.029 | [7] 0.021 | [8] -0.007 | [9] 0.012 | IRAK-1-4 Inhibitor I -0.016 | ibrutinib 0.018 | [10] 0.035 | ralimetinib -0.011 | [11] 0.056 | [12] 0.023 | pinometostat 0.031 | [14] -0.114
